From patent US11780838B1, “Pyrrolo[3,2-b]quinoline compounds as antibacterial agents” (King Faisal University, priority 2023, dated 2023)
Values after ≈ are worked out from the molar mass of the structure shown.

Columns and labels:
Test in all cases: In vitro antibacterial activity (MIC, CLSI M07-A10 dilution)
Type in all cases: cell-based
[1] = tested on: Escherichia coli MTCC 443; conditions: MTCC443
[2] = tested on: Staphylococcus aureus ATCC 29213; conditions: ATCC29213
[3] = tested on: Enterococcus faecium ATCC 35667; conditions: ATCC35667
[4] = tested on: Enterococcus faecium ATCC 51559 (VRE resistant)
[5] = tested on: Staphylococcus epidermidis
[6] = tested on: Staphylococcus aureus ATCC BAA-1556 (MERSA resistant); conditions: ATCCBAA1556
[7] = tested on: Pseudomonas aeruginosa MTCC 741; conditions: MTCC741
[8] = tested on: Bacillus subtilis MTCC 441; conditions: MTCC441

For `CN[C@H](CC(C)C)C(=O)N[C@H]1C(=O)N[C@@H](CC(N)=O)C(=O)N[C@H]2C(=O)N[C@H]3C(=O)N[C@H](C(=O)N[C@H](C(=O)O)c4cc(O)cc(O)c4-c4cc3ccc4O)[C@H](O)c3ccc(c(Cl)c3)Oc3cc2cc(c3O[C@@H]2O[C@H](CO)[C@@H](O)[C@H](O)[C@H]2O[C@H]2C[C@](C)(N)[C@H](O)[C@H](C)O2)Oc2ccc(cc2Cl)[C@H]1O` [Vancomycin, reference compound], which MIC [1] is on record?
The MIC was > 128 µg/mL.

And the MIC [2]?
The MIC was 1 µg/mL (≈ 0.69 µM).

What about the MIC [3] of the same compound?
Its MIC is 0.5 µg/mL (≈ 0.345 µM).

And the MIC [4]?
The MIC was > 128 µg/mL.

And the MIC [5]?
The MIC was 1 µg/mL (≈ 0.69 µM).

What about the MIC [6] of the same compound?
The MIC was 1 µg/mL (≈ 0.69 µM).

What about the MIC [7] of the same compound?
Its MIC is > 128 µg/mL.

What about the MIC [8] of the same compound?
The MIC was 0.5 µg/mL (≈ 0.345 µM).
